Oligonucleotides screened, 5′ to 3′:
PreQ1: PreQ1 riboswitch RNA pseudoknot, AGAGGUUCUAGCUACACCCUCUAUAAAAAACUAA. From B. subtilis. Hit rate about 0.7% of about 24,000 compounds.
SAM-II: SAM-II riboswitch RNA pseudoknot, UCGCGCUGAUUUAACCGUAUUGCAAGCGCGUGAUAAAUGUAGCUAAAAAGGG. Hit rate about 1% of about 21,000 compounds.
TPP: TPP riboswitch RNA three-way junction, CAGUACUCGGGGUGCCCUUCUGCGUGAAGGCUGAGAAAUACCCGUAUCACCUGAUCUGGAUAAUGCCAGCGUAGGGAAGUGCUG. Hit rate about 0.7% of about 24,000 compounds.

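Compounds were printed on reactive glass slides in duplicate spots, a dye-labelled oligonucleotide was laid over them, and the fluorescence left after washing was read. For the PreQ1, TPP and SAM-II riboswitches the laboratory earlier reported (doi:10.1038/s41467-019-09493-3) 1 µM RNA, 2 h, and a rule that included a mean Z-score above 3 (spot signal-to-noise against the whole library), a score well above that on a control array, and duplicate spots agreeing (coefficient of variation under 100). The data file gives only the calls; its cut-offs may differ, and compounds hitting several targets are kept. A missing hit is not proof of no binding, and a hit is not a measured affinity.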 Key: hit = hit, no hit = tested without a hit. The compounds are a random part of those screened. A target missing from an entry has no call listed here.

With COC(=O)c1ccc2nc(C)cc(Nc3ccc(N(C)C)cc3)c2c1 the screen gave PreQ1: no hit; SAM-II: no hit; TPP: no hit. With O=C(NCc1ccco1)Nc1cccc([N+](=O)[O-])c1 the screen gave PreQ1: no hit; SAM-II: no hit; TPP: no hit. Cc1nc(N2CCOc3ccc(CO)cc3C2)c2ccsc2n1 was scored PreQ1: no hit; SAM-II: no hit; TPP: no hit. CCCc1nc(C)sc1-c1nnc(N)o1 was scored PreQ1: no hit; SAM-II: no hit; TPP: no hit. With Cc1ccc(S(=O)(=O)[C@H]2CS(=O)(=O)C[C@@H]2NCc2cccc(C)c2)cc1 the screen gave PreQ1: no hit; TPP: no hit. With O=C(O)c1ccc(OCCOc2ccccc2)cc1 the screen gave PreQ1: no hit; SAM-II: no hit; TPP: no hit. CCC#CCn1nc(C2CCNCC2)n(-c2ccccc2)c1=O was scored PreQ1: no hit; SAM-II: no hit; TPP: no hit. With O=C(c1ccc(OCCN2CCCCC2)cc1)c1c(-c2ccc(O)cc2)sc2cc(O)ccc12 the screen gave PreQ1: no hit; SAM-II: no hit; TPP: no hit.

With Fc1ccc(Nc2nc3ccccc3c3nncn23)c(F)c1 the screen gave PreQ1: no hit; SAM-II: no hit; TPP: no hit. For O=C(N1CCOCC(CO)C1)C1(c2ccccc2)CCCCC1 (stereo unspecified) the calls were PreQ1: no hit; SAM-II: no hit; TPP: no hit. Calls for COc1ccc(C(=O)c2sc3nc(-c4ccc(OC)cc4)ccc3c2N)cc1 are PreQ1: no hit; SAM-II: no hit; TPP: no hit. COC(=O)c1ccccc1Nc1cc(C)nc2nc(C)nn12 was scored PreQ1: no hit; SAM-II: no hit; TPP: no hit. COc1ccccc1CCN[C@H]1CS(=O)(=O)C[C@@H]1S(=O)(=O)c1ccc(F)cc1 was scored PreQ1: no hit; TPP: no hit. With CC1(C)CC(=O)C=C(Nc2ccccc2F)C1 the screen gave PreQ1: no hit; SAM-II: no hit; TPP: no hit. With Fc1ccc(Nc2ccnc3ccc(Cl)cc23)cc1 the screen gave PreQ1: no hit; SAM-II: no hit; TPP: no hit. CCCCNc1cc(C)nc2nc(-c3ccccc3)nn12 was scored PreQ1: no hit; TPP: no hit.

For O=C(NC1(CCCO)CSCC1O)c1ccccc1 (stereo unspecified) the calls were PreQ1: no hit; SAM-II: no hit; TPP: no hit. Nc1ccc(-c2ccc(N)c([N+](=O)[O-])c2)cc1[N+](=O)[O-] was scored PreQ1: no hit; SAM-II: no hit; TPP: no hit. For Cc1oc(C(C)C)cc1C(=O)N1CCC2(CCCN(CCO)C2=O)C1 (stereo unspecified) the calls were PreQ1: no hit; SAM-II: no hit; TPP: no hit. With Brc1ccc(-c2ccc(CNCc3ccco3)o2)cc1 the screen gave PreQ1: no hit; TPP: no hit. COc1cc(/C=C2\CCOC2=O)cc(OC)c1OC was scored PreQ1: no hit; SAM-II: no hit; TPP: no hit. With O=C(Cn1nnc(N2CCCCC2)n1)N/N=C/c1ccccc1O the screen gave PreQ1: no hit; SAM-II: no hit; TPP: no hit. For COc1cc(OC)cc(C2C(C#N)=C(N)OC3=C2C(=O)CCC3)c1 (stereo unspecified) the calls were PreQ1: no hit; SAM-II: no hit; TPP: no hit. With Cc1cc(C)c(CN2CCOC(CN)C2)cc1C (stereo unspecified) the screen gave PreQ1: no hit; SAM-II: no hit; TPP: no hit.

With O=C1CCC2(CCCN(C(=O)Cc3ccc(Cl)cc3)C2)CN1CCO (stereo unspecified) the screen gave PreQ1: no hit; SAM-II: no hit; TPP: no hit. For CC(=O)N1CCC(N[C@@H]2CC[C@@H]2NC(=O)c2ccccc2-c2nnn[nH]2)CC1 the calls were PreQ1: no hit; SAM-II: no hit; TPP: no hit. Calls for O=P(O)(O)c1cc(-c2ccccc2)oc1-c1ccccc1 are PreQ1: no hit; SAM-II: no hit; TPP: no hit. For CCOC(=O)C1CCCN(c2c(NCc3ccco3)c(=O)c2=O)C1 (stereo unspecified) the calls were PreQ1: no hit; TPP: no hit. Cc1nnc2c3ccccc3nc(Nc3ccc(Cl)cc3)n12 was scored PreQ1: no hit; TPP: no hit. Calls for CCc1c(C)nn(CCNc2nc(C3CCCC3)nc3c2CNC3)c1C are PreQ1: no hit; SAM-II: no hit; TPP: no hit. Calls for OC[C@H]1CCN(Cc2cnc(NCc3ccccc3)nc2)C[C@@H]1O are PreQ1: no hit; SAM-II: no hit; TPP: no hit. Calls for Nc1ccc(C(=O)c2cccs2)cn1 are PreQ1: no hit; SAM-II: no hit; TPP: no hit.

With O=C(N[C@@H]1CCN(Cc2nnc(-c3ccccc3)o2)C[C@H]1O)c1ccccn1 the screen gave PreQ1: no hit; SAM-II: no hit; TPP: no hit. Calls for Cn1c(=O)c2[nH]c(Nc3ccccc3)nc2n(C)c1=O are PreQ1: no hit; TPP: no hit. Cc1cc(NCc2ccccc2)n2nc(-c3ccccc3)nc2n1 was scored PreQ1: no hit; TPP: no hit. For Cc1ccc(Nc2nc(C)cc(N3CCN(S(=O)(=O)c4cccs4)CC3)n2)cc1 the calls were PreQ1: no hit; TPP: no hit. Nc1ccc(Br)cc1C(=O)c1ccccc1 was scored PreQ1: no hit; SAM-II: no hit; TPP: no hit. For Cc1cc(NC(C)c2nc(-c3ccncc3)no2)nc(N)n1 (stereo unspecified) the calls were PreQ1: no hit; SAM-II: no hit; TPP: no hit. Calls for Cc1noc(C)c1C(=O)N[C@H]1CN[C@H](C(=O)N2CCc3[nH]cnc3C2)C1 are PreQ1: no hit; SAM-II: no hit; TPP: no hit. With O=C(c1ccc(CNc2c(N3CCCC3)c(=O)c2=O)cc1)N1CCN(c2ccccn2)CC1 the screen gave PreQ1: no hit; TPP: no hit.

Repeated from the top, 5 entries:

- COC(=O)c1ccc2nc(C)cc(Nc3ccc(N(C)C)cc3)c2c1 | PreQ1: no hit; SAM-II: no hit; TPP: no hit
- O=C(NCc1ccco1)Nc1cccc([N+](=O)[O-])c1 | PreQ1: no hit; SAM-II: no hit; TPP: no hit
- Cc1nc(N2CCOc3ccc(CO)cc3C2)c2ccsc2n1 | PreQ1: no hit; SAM-II: no hit; TPP: no hit
- CCCc1nc(C)sc1-c1nnc(N)o1 | PreQ1: no hit; SAM-II: no hit; TPP: no hit
- Cc1ccc(S(=O)(=O)[C@H]2CS(=O)(=O)C[C@@H]2NCc2cccc(C)c2)cc1 | PreQ1: no hit; TPP: no hit

Source: the ROBIN nucleic acid binder screens (doi:10.1002/anie.202211358).